# Assay results taken from PMC7083565, “In vitro metabolism, reaction phenotyping, enzyme kinetics, CYP inhibition and induction potential of ataluren” (Pharmacology Research & Perspectives, 2020).
# Legend:
# [1] = system: UGT1A1; assay: Correlation analysis with marker UGT1A1 activity; assay type: in vitro ADME, human; settings: vs 3-Glucuronidation of 17β-estradiol (UGT1A1), 16 individual HLM
# [2] = system: UGT1A9; assay: Correlation analysis with marker UGT1A9 activity; assay type: in vitro ADME, human; settings: vs Glucuronidation of propofol (UGT1A9), 16 individual HLM
structure (smiles),measurement,setting,value
"O=C(O)c1cccc(-c2noc(-c3ccccc3F)n2)c1 [ataluren, Ataluren]","Correlation coefficient, Ataluren glucuronide formation",[1],0.430
same,"Correlation coefficient, Loss of ataluren",[1],0.383
same,"Correlation coefficient, Ataluren glucuronide formation",[2],0.677
same,"Correlation coefficient, Loss of ataluren",[2],0.756
